Patent US4594329A, “CRF analogs” (The Salk Institute for Biological Studies, priority 1984, dated 1986)
At least one peptide structure holds a part that was inferred or is arguable (an end, a ring closure or a residue). Some compounds share one wording; it may come from a single statement. Square brackets hold non-standard residues; d marks the D form. Ends that are not written are not given here. Peptide text beside a SMILES is read from it. * marks the point of attachment. hArg = N=C(N)NCCCC[C@H](N)C(=O)O; αMeL = CC(C)C[C@](C)(N)C(=O)O; Acryloyl = C=CC(=O)*; Aib = CC(C)(N)C(=O)O

How the values were obtained:
[1] = tested on: cultured rat pituitary cells; assay: secretion of ACTH and β-endorphin by cultured rat pituitary cells; format: cell-based; settings: general procedure of Example III
Method: (§1) The synthetic peptide AHC and oCRF were examined for their effects on the secretion of ACTH and β-endorphin in vitro and was also in vivo. The potency of synthetic oCRF to stimulate the secretion of ACTH and β-endorphin by cultured rat pituitary cells was measured using the procedure as generally set forth in Endocrinology, 91, 562 (1972). […] In vivo testing is carried out using the general procedure set forth in C. Rivier et al., Science, 218, 377 (1982).

[2] = lowering of blood pressure, in vivo testing; settings: general procedure of Example III
Method: as §1

Molecule | stimulates the secretion of ACTH and β-END-LI [1] | lowering of blood pressure [2]
CC[C@H](C)[C@H](NC(=O)[C@H](CC(=O)O)NC(=O)[C@H](CC(C)C)NC(=O)[C@H](CC(C)C)NC(=O)[C@H](CCCCN)NC(=O)[C@H](CCCNC(=N)N)NC(=O)[C@H](CC(N)=O)NC(=O)[C@](C)(CC(C)C)NC(=O)[C@H](Cc1c[nH]cn1)NC(=O)[C@H](C)NC(=O)[C@H](CCC(N)=O)NC(=O)[C@H](CCC(N)=O)NC(=O)[C@H](C)NC(=O)[C@H](CC(C)C)NC(=O)[C@H](CCC(N)=O)NC(=O)[C@H](CC(=O)O)NC(=O)[C@H](C)NC(=O)[C@H](CCCCN)NC(=O)[C@@H](NC(=O)[C@H](CCSC)NC(=O)[C@H](CCC(=O)O)NC(=O)[C@H](CC(C)C)NC(=O)[C@@H](NC(=O)[C@H](CCC(=O)O)NC(=O)[C@H](CCCNC(=N)N)NC(=O)[C@H](CC(C)C)NC(=O)[C@H](CC(C)C)NC(=O)[C@H](Cc1c[nH]cn1)NC(=O)[C@H](Cc1ccccc1)NC(=O)[C@@H](NC(=O)[C@H](CC(C)C)NC(=O)[C@H](CC(=O)O)NC(=O)[C@H](CC(C)C)NC(=O)[C@H](CO)NC(=O)[C@@H](NC(=O)[C@@H]1CCCN1C(=O)[C@@H]1CCCN1C(=O)[C@H](N)Cc1ccc(O)cc1)[C@@H](C)CC)[C@@H](C)O)C(C)C)[C@@H](C)O)C(=O)N[C@@H](C)C(N)=O [[D-Tyr^3,CML^33]-oCRF(3-41)] (H-[dY]PPISLDLTFHLLREVLEMTKADQLAQQAH[αMeL]NRKLLDIA-NH2) | stimulates the secretion of ACTH and β-END-LI | very significant lowering of blood pressure
Acryloyl-LGVSEPPISLDLTFHLLREVLEMARAEQLAQQAHSNRKLMEEI-NH2 | stimulates the secretion of ACTH and β-END-LI | very significant lowering of blood pressure
SQEPPISLD[αMeL]TFHL[αMeL]REMLEM[Aib]KAEQ[αMeL]AEQA[Aib]LNRL[αMeL]LEE[Aib]-NH2 [[CML^10,15,27,37,CMA^22,32,41]-AHC] | stimulates the secretion of ACTH and β-END-LI | very significant lowering of blood pressure
SQEPPISLD[αMeL]TFH[αMeL]LREM[αMeL]EMAKAEQ[αMeL]AEQAA[αMeL]NR[hArg]L[αMeL]EEA-NH2 [[CML^10,14,19,27,33,38, Har^36]-AHC] | stimulates the secretion of ACTH and β-END-LI | very significant lowering of blood pressure
